What all share (test): DAPPL (digital affinity profiling via proximity ligation, sequencing)
Common to all, as to details: 10 mM Tris-HCl pH 7.5, 50 mM NaCl, 1 mM DTT, 4% glycerol, room temperature, 30 min; GST-TFs on glutathione beads, 16-mer random dsDNA library, 0.1% …; high values mean tight binding; double strand, one strand shown; scale: fold enrichment (6-mer frequency, TF over GST control)

By UniProt entry, the sequences of proteins in these tests, tags left out. Where a name states a change or a piece, a line headed by the entry shows the natural chain unless it says otherwise.
UniProt Q9Y603: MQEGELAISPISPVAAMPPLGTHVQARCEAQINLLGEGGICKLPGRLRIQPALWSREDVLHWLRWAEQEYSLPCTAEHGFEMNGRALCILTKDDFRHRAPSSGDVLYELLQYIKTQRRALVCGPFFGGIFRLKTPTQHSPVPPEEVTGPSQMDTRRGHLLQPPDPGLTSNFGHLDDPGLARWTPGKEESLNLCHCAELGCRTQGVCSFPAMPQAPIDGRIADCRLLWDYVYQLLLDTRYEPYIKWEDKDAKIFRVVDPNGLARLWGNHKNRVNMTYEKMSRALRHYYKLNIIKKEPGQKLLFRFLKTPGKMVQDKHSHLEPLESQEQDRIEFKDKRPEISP
UniProt P41212: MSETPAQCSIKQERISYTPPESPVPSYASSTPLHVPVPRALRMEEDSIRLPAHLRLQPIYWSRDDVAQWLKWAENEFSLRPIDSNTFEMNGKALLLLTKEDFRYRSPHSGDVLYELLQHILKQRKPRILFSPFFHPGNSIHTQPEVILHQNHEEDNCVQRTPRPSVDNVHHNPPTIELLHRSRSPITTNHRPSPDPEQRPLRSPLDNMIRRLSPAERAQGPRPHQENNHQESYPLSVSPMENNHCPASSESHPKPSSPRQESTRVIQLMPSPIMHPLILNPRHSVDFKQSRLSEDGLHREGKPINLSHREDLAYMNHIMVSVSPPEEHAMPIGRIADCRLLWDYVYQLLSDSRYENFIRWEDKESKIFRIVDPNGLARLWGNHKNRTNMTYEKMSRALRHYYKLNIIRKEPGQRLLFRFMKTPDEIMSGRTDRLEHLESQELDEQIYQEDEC

For one assay, the target named is T1, ELF3 (UniProt P78545).
T1 sequence: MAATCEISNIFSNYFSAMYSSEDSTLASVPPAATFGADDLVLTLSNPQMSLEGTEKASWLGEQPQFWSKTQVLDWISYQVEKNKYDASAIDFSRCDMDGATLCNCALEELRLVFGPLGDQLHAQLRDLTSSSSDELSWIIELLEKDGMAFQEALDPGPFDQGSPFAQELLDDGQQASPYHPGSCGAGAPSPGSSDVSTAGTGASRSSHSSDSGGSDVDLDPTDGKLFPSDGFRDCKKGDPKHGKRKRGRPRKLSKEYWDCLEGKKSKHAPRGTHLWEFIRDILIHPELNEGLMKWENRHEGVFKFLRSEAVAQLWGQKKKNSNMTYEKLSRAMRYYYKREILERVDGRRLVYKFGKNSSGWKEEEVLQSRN

The target in a further assay is ETV7 (UniProt Q9Y603).
In the next assay the target is ETV6 (UniProt P41212).

The values below come from article PMC7862700.

The entries are a selection whose mix differs from that of the whole data set. At the low end of the ranking, values are background and their order means little.

Consider AGATCG, for which the binding signal in the assay with ELF3 amounted to 0.477; with ETV7 it was 0.519; in the assay with ETV6, 0.502.
The like results for ACACAG were, in that order, 0.948, 1.13 and 0.959.
The like results for GGACTG were, in that order, 0.773, 0.715 and 0.67.
For AGGGGC the same measures were 0.843, 0.822 and 0.886.
Regarding CACGGG, the binding signal with ELF3 is 0.771; with ETV7, 0.805; with ETV6 it was 0.75.
The like results for GAGCCC were, in that order, 0.816, 0.71 and 0.758.
With TCGCAG, the binding signal was determined as 0.825 with ELF3, 0.898 with ETV7 and 0.887 in the assay with ETV6.
For GAGCAC the same measures were 0.727, 0.704 and 0.729.
CGGGTC: the values for the binding signal with ELF3, with ETV7 and in the assay with ETV6 were 0.557, 0.718 and 0.704, respectively.
Turning to CGTGCT, the values for the binding signal with ELF3, with ETV7 and in the assay with ETV6 were 0.907, 0.884 and 0.823, respectively.
The like results for GTAGCC were, in that order, 1.06, 0.95 and 0.897.
The like results for GCAAGT were, in that order, 0.834, 0.835 and 0.77.
For GGGCGC the same measures were 0.585, 0.558 and 0.627.
Turning to GTCATC, the binding signal turned out to be 0.841 in the assay with ELF3, 0.858 with ETV7 and 0.906 with ETV6.
The like results for AGCGTA were, in that order, 0.916, 0.864 and 0.892.
The like results for TGTCGG were, in that order, 0.35, 0.369 and 0.314.
The like results for ATCCAG were, in that order, 0.893, 0.841 and 0.857.
For the sequence GCAGGG, the binding signal in the assay with ELF3 worked out at 0.639; with ETV7, 0.668; with ETV6 it was 0.702.
The like results for CGGTAC were, in that order, 0.882, 0.866 and 0.907.
The like results for AGGCTG were, in that order, 0.478, 0.635 and 0.623.
Turning to CAGGCC, the figures for the binding signal in the assay with ELF3, with ETV7 and with ETV6 were 0.686, 0.745 and 0.657, respectively.
For AGTAGG the same measures were 0.678, 0.735 and 0.721.
Turning to TGAGAA, the figures for the binding signal with ELF3, with ETV7 and with ETV6 were 0.698, 0.688 and 0.685, respectively.
Take GAAGGC: the figures for the binding signal with ELF3, with ETV7 and with ETV6 were 0.873, 0.965 and 0.907, respectively.
For CGGTCC the same measures were 0.843, 0.939 and 0.907.
The like results for ACCGTA were, in that order, 0.891, 0.816 and 0.845.
The like results for GGCGCA were, in that order, 0.551, 0.673 and 0.601.
With GTCGAG, the results for the binding signal with ELF3, with ETV7 and in the assay with ETV6 were 0.448, 0.502 and 0.405, respectively.
For GGCACA the same measures were 0.857, 0.892 and 0.86.
For ACGGTC the same measures were 0.679, 0.876 and 0.731.
For GGTTGA the same measures were 0.726, 0.719 and 0.756.
For GAGCCA, the binding signal was 0.618 with ELF3, 0.629 in the assay with ETV7 and 0.617 in the assay with ETV6.
For GGCCGA the same measures were 0.722, 0.713 and 0.771.
For GGCCCA the same measures were 0.666, 0.797 and 0.811.
The like results for CCGGGG were, in that order, 0.711, 0.792 and 0.749.
On to GCGTGC, for which the results for the binding signal with ELF3, with ETV7 and with ETV6 were 0.852, 0.782 and 0.753, respectively.
Turning to GAGGAC, the binding signal with ELF3 was 0.566; with ETV7, 0.589; with ETV6 it was 0.602.
The like results for GGTAGT were, in that order, 0.746, 0.844 and 0.811.
The like results for GGAGAG were, in that order, 0.301, 0.327 and 0.271.
For GTCATA the same measures were 0.731, 0.75 and 0.662.
Regarding GGCTGA, the binding signal in the assay with ELF3 came to 0.79; with ETV7, 0.684; with ETV6, 0.737.
The like results for AGCGGT were, in that order, 0.704, 0.69 and 0.778.
The like results for AGTCAT were, in that order, 0.632, 0.646 and 0.582.
The like results for GGTCAG were, in that order, 0.539, 0.625 and 0.545.
For the sequence CCAGTC, the values for the binding signal in the assay with ELF3, in the assay with ETV7 and in the assay with ETV6 were 0.252, 0.358 and 0.259, respectively.
For GAGACC the same measures were 0.183, 0.198 and 0.185.
For GCAAGG the same measures were 0.821, 0.87 and 0.773.
The like results for AAGACC were, in that order, 0.888, 0.787 and 0.898.
Turning to AGGAGA, the binding signal in the assay with ELF3 was 0.214; in the assay with ETV7, 0.266; with ETV6, 0.214.
Take GGACCC: the binding signal with ELF3 was 0.866; in the assay with ETV7, 0.791; in the assay with ETV6, 0.865.
For AGGCGC the same measures were 0.537, 0.662 and 0.607.
The like results for AAAGGA were, in that order, 0.995, 0.948 and 0.945.
For GGATTG the same measures were 0.795, 0.816 and 0.771.
Turning to TGAGGA, the figures for the binding signal with ELF3, in the assay with ETV7 and with ETV6 were 0.761, 0.661 and 0.715, respectively.
The like results for GGGAAC were, in that order, 0.697, 0.682 and 0.698.
The like results for GAGCAA were, in that order, 0.885, 0.8 and 0.696.
AGATTG: the figures for the binding signal in the assay with ELF3, with ETV7 and with ETV6 were 0.78, 0.838 and 0.773, respectively.
TGACAG: the results for the binding signal in the assay with ELF3, with ETV7 and in the assay with ETV6 were 1.09, 0.998 and 0.959, respectively.
The like results for GCCAGT were, in that order, 0.324, 0.361 and 0.321.
For GTGAGA the same measures were 0.352, 0.36 and 0.289.
In the case of GTGGAG, the binding signal with ELF3 was 0.319; with ETV7 it was 0.407; with ETV6, 0.412.
CGTAGG: the binding signal with ELF3 turned out to be 0.562; with ETV7 it was 0.65; with ETV6, 0.677.
The like results for CACCAG were, in that order, 0.829, 0.734 and 0.722.
For AGTGCG the same measures were 0.877, 0.802 and 0.84.
The like results for ATAGGA were, in that order, 0.779, 0.802 and 0.856.
Consider TGGGCC, for which the results for the binding signal with ELF3, with ETV7 and with ETV6 were 0.803, 0.937 and 0.95, respectively.
For AGGGAG the same measures were 0.346, 0.37 and 0.376.
The like results for CGCGAG were, in that order, 0.448, 0.625 and 0.486.
For GATCGG the same measures were 0.457, 0.525 and 0.47.
GCAGTT: the binding signal with ELF3 is 0.842; with ETV7, 0.844; in the assay with ETV6, 0.856.
For GGCTGT the same measures were 0.852, 0.925 and 0.757.
Turning to AAGGGG, the binding signal in the assay with ELF3 was found to be 0.996; in the assay with ETV7, 0.894; with ETV6, 0.984.
The like results for GATAGG were, in that order, 0.949, 0.905 and 0.773.
The like results for TCGGTA were, in that order, 0.644, 0.581 and 0.532.
For GGGCAG the same measures were 0.527, 0.659 and 0.607.
Consider GAGTAT, for which the binding signal with ELF3 turned out to be 0.586; with ETV7, 0.665; with ETV6, 0.58.
With CAGGCG, the values for the binding signal with ELF3, in the assay with ETV7 and in the assay with ETV6 were 0.254, 0.377 and 0.282, respectively.
The like results for TCAGTC were, in that order, 0.697, 0.634 and 0.618.
The like results for CCAGGC were, in that order, 0.438, 0.518 and 0.436.
The like results for CAGTCA were, in that order, 0.474, 0.576 and 0.492.
Take GGGGAT: the binding signal with ELF3 was 0.637; in the assay with ETV7 it was 0.628; in the assay with ETV6, 0.641.
The like results for GTACCG were, in that order, 0.934, 0.748 and 0.718.
For GTCAGG the same measures were 0.55, 0.54 and 0.517.
The like results for CAGGGA were, in that order, 0.565, 0.591 and 0.539.
